We go through 2 molecules from paper doi:10.1101/2024.04.11.589026 (bioRxiv, 2024).

The chains behind the UniProt entries cited, without tags or fusion partners.
UniProt Q8TD16: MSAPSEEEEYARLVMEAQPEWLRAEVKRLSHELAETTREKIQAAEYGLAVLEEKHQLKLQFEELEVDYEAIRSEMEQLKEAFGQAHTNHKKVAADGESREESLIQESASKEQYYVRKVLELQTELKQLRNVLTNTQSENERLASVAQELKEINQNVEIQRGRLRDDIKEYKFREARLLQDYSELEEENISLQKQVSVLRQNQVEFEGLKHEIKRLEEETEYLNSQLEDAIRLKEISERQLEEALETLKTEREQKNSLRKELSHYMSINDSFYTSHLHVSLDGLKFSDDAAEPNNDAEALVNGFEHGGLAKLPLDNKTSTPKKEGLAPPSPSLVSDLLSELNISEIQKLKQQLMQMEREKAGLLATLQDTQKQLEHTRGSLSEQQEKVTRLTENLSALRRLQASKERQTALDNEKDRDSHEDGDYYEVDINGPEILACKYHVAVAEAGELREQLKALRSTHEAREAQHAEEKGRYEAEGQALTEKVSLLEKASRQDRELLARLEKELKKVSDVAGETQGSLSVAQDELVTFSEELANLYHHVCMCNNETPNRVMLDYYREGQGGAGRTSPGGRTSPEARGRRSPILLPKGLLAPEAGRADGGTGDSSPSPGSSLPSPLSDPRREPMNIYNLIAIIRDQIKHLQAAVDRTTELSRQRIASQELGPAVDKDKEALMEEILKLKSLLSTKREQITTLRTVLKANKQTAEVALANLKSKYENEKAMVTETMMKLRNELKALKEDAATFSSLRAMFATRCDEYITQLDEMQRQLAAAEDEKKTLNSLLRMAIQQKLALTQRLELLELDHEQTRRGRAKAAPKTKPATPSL

Results are given in words; binding and its absence hold for the method and conditions named. Binding seen in cells or lysates may run through a third protein. Here binding means that the protein was enriched with, or labelled near, the bait; the list need not be complete. Where a sequence is shown, tags or fusion partners need not be part of it.

For this assay, the target named is T1, GFP-ScaC (passenger domain of ScaC, residues 33-223, fused to a N-terminal eGFP tag) (Orientia tsutsugamushi) (UniProt I6Z768).
T1 sequence: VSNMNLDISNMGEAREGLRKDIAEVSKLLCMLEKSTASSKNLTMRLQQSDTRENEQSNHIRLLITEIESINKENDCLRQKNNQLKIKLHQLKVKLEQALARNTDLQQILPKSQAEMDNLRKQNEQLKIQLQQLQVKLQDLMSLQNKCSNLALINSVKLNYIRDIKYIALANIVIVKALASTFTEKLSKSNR
Briefly: affinity purification with mass spectrometry.

For the molecule “BICD2 (endogenous, HeLa) (from UniProt Q8TD16 1-824)”, the binding result is listed as “binds”.

B1: BICD1 (endogenous, HeLa) (protein, UniProt Q96G01 1-975)
chain: MAAEEVLQTVDHYKTEIERLTKELTETTHEKIQAAEYGLVVLEEKLTLKQQYDELEAEYDSLKQELEQLKEAFGQSFSIHRKVAEDGETREETLLQESASKEAYYLGKILEMQNELKQSRAVVTNVQAENERLTAVVQDLKENNEMVELQRIRMKDEIREYKFREARLLQDYTELEEENITLQKLVSTLKQNQVEYEGLKHEIKRFEEETVLLNSQLEDAIRLKEIAEHQLEEALETLKNEREQKNNLRKELSQYISLNDNHISISVDGLKFAEDGSEPNNDDKMNGHIHGPLVKLNGDYRTPTLRKGESLNPVSDLFSELNISEIQKLKQQLMQVEREKAILLANLQESQTQLEHTKGALTEQHERVHRLTEHVNAMRGLQSSKELKAELDGEKGRDSGEEAHDYEVDINGLEILECKYRVAVTEVIDLKAEIKALKEKYNKSVENYTDEKAKYESKIQMYDEQVTSLEKTTKESGEKMAHMEKELQKMTSIANENHSTLNTAQDELVTFSEELAQLYHHVCLCNNETPNRVMLDYYRQSRVTRSGSLKGPDDPRGLLSPRLARRGVSSPVETRTSSEPVAKESTEASKEPSPTKTPTISPVITAPPSSPVLDTSDIRKEPMNIYNLNAIIRDQIKHLQKAVDRSLQLSRQRAAARELAPMIDKDKEALMEEILKLKSLLSTKREQIATLRAVLKANKQTAEVALANLKNKYENEKAMVTETMTKLRNELKALKEDAATFSSLRAMFATRCDEYVTQLDEMQRQLAAAEDEKKTLNTLLRMAIQQKLALTQRLEDLEFDHEQSRRSKGKLGKSKIGSPKVSGEASVTVPTIDTYLLHSQGPQTPNIRVSSGTQRKRQFSPSLCDQSRPRTSGASYLQNLLRVPPDPTSTESFLLKGPPSMSEFIQGHRLSKEKRLTVAPPDCQQPAASVPPQCSQLAGRQDCPTVSPDTALPEEQPHSSSQCAPLHCLSKPPHP
As to B1, the binding entry is on record as “binds”.
